The record followed here is PubChem BioAssay AID248 (DTP/NCI, 2004).

The list does not hold the whole screen: it is rich in T/C values a quarter to a half above the control, in often repeated tests (any T/C) and in doses without a T/C. Further doses and runs are listed elsewhere. T/C gives the treated animals as a percentage of the vehicle group. Some entries give survivors of the animals treated and no T/C: the source holds a T/C of zero for them, seemingly a mark for toxic or unscored doses. Some survivor counts are full or nearly so, which does not show that the dose was tolerated: the source hardly ever lists a survival T/C far under the control, and the zero likely stands for such cases as well. Survivors were counted at the toxicity check, usually on the fifth day, unless a day is given; later deaths do not show. Schedule codes are those of the source, read here as Q, the interval in days (D) or hours (H), X, the number of doses. Some schedules carry Z or #; the key to these is not given. Some entries hold several experiments; their values stand side by side, smallest first. Where survival is the endpoint, this PubChem deposit counts one and a half times the control or more as active, and values a quarter to a half above the control carry no call in these data; other NCI protocols may use other cut-offs. Some T/C values carry the count of animals alive at the toxicity check (mostly the fifth day); where none is given, no animal had died by that day.

The subject of this experiment is L1210 leukemia ip in BDF1 mice, survival T/C. The experiment in a line: NCI In Vivo Anticancer Drug Screen. Data for tumor model L1210 Leukemia (intraperitoneal) in B6D2F1 (BDF1) mice. As to conditions: T/C endpoint: mean survival time, higher T/C = longer survival.
The mark [1] stands for this setting: dose: 50.0 mg/kg/injection, schedule: Q01DX001 (ip), vehicle: carboxymethylcellulose (CMC).
Where [2] appears, read: dose: 200.0 mg/kg/injection, schedule: Q01DX001 (ip), vehicle: carboxymethylcellulose (CMC).
[3] abbreviates: dose: 150.0 mg/kg/injection, schedule: Q01DX001 (ip), vehicle: saline.
The mark [4] stands for this setting: dose: 300.0 mg/kg/injection, schedule: Q01DX001 (ip), vehicle: saline.
Where [5] appears, read: dose: 400.0 mg/kg/injection, schedule: Q01DX001 (ip), vehicle: saline.

Turning to `COC1OC2COCOC2C(OS(=O)(=O)c2ccc(C)cc2)C1OS(=O)(=O)c1ccc(C)cc1` (stereo not given), the survivor count (dose: 400.0 mg/kg/injection, schedule: Q04DX003 (ip), vehicle: saline with Tween-80) is listed as 6 of 6.
`CCOC(=O)C(Cc1ccc(N(CCCl)CCCl)cc1)NP1(=O)NCCCO1` (stereo not given): the T/C (dose: 4.0 mg/kg/injection, schedule: Q01DX015 (ip), vehicle: carboxymethylcellulose (CMC)) is 134 % of control; the T/C (dose: 7.0 mg/kg/injection, schedule: Q01DX015 (ip), vehicle: carboxymethylcellulose (CMC)) was 140 % of control; the T/C (dose: 10.5 mg/kg/injection, schedule: Q01DX015 (ip), vehicle: other) was 136 % of control; the T/C (dose: 28.0 mg/kg/injection, schedule: Q01DX015 (ip), vehicle: carboxymethylcellulose (CMC)) was 127 % of control; the T/C (dose: 48.24 mg/kg/injection, schedule: Q01DX015 (ip), vehicle: carboxymethylcellulose (CMC)) was 127 % of control; the T/C under setting [1] was 128 % of control. For the same compound, the T/C runs as follows: (dose: 80.4 mg/kg/injection, schedule: Q01DX015 (ip), vehicle: carboxymethylcellulose (CMC)) 148 % of control [5 of 6 alive]; (dose: 177.6 mg/kg/injection, schedule: Q01DX001 (ip), vehicle: carboxymethylcellulose (CMC)) 137 % of control; under setting [2], 125 % of control; (dose: 266.8 mg/kg/injection, schedule: Q01DX001 (ip), vehicle: carboxymethylcellulose (CMC)) 140 % of control; (dose: 400.0 mg/kg/injection, schedule: Q01DX001 (ip), vehicle: carboxymethylcellulose (CMC)) 133 % of control. In addition, the survivor count was 4 of 6 (dose: 80.0 mg/kg/injection, schedule: Q01DX015 (ip), vehicle: carboxymethylcellulose (CMC)); 0 of 6 and 6 of 6 (dose: 134.0 mg/kg/injection, schedule: Q01DX015 (ip), vehicle: carboxymethylcellulose (CMC)); 3 of 4 (dose: 200.0 mg/kg/injection, schedule: Q01DX001 (ip), vehicle: other); 2 of 4 (dose: 400.0 mg/kg/injection, schedule: Q01DX001 (ip), vehicle: other); 1 of 4 (dose: 600.0 mg/kg/injection, schedule: Q01DX001 (ip), vehicle: carboxymethylcellulose (CMC)).
Take `CS(=O)(=O)OCCNCCOS(C)(=O)=O`: the survivor count was 6 of 6 under setting [3] and 2 of 6 under setting [4].
Take `Nc1cc(C(=O)Nc2cccc(C3=NCCN3)c2)ccc1C(=O)Nc1cccc(C2=NCCN2)c1`: the survivor count (dose: 15.0 mg/kg/injection, schedule: Q01DX Z (ip), vehicle: saline) was 0 of 6.
As to `Cc1cc(NC(=O)Nc2ccc(C3=NCCCN3)cc2)ccc1NC(=O)Nc1ccc(C2=NCCCN2)cc1`, the T/C by setting is: (dose: 8.0 mg/kg/injection, schedule: Q01DX Z (ip), vehicle: water) 128 % of control; (dose: 45.0 mg/kg/injection, schedule: Q01DX009 (ip), vehicle: saline) 147 % of control; (dose: 65.0 mg/kg/injection, schedule: Q01DX009 (ip), vehicle: saline) 146 % of control. Moreover, the survivor count was 3 of 6 (dose: 15.0 mg/kg/injection, schedule: Q01DX Z (ip), vehicle: water) and 0 of 6 (dose: 20.0 mg/kg/injection, schedule: Q01DX Z (ip), vehicle: water).
Take `CC(=O)c1cccc(N=C=O)c1`: the survivor count is 0 of 3 (dose: 100.0 mg/kg/injection, schedule: Q01DX001 (ip), vehicle: saline with Tween-80); 0 of 3 (dose: 200.0 mg/kg/injection, schedule: Q01DX001 (ip), vehicle: saline with Tween-80); 0 of 3 (dose: 400.0 mg/kg/injection, schedule: Q01DX001 (ip), vehicle: saline with Tween-80).
Consider `CCC(C)C(CCCN1CCCCC1)(CNC(=O)CN(CC)CC)c1cccc2ccccc12` (stereo not given), for which the survivor count is reported as 3 of 6 (dose: 200.0 mg/kg/injection, schedule: Q04DX003 (ip), vehicle: saline) and 0 of 6 (dose: 400.0 mg/kg/injection, schedule: Q04DX003 (ip), vehicle: saline).
As to `Nc1ncnc(N)c1NC(=O)c1ccc(-c2ccccc2)cc1`, the survivor count (dose: 200.0 mg/kg/injection, schedule: Q04DX003 (ip), vehicle: saline with Tween-80) is 6 of 6.
For `C[S+]1C=Cc2ccccc2C1c1ccc(Cl)cc1` (stereo not given), the survivor count is 3 of 3 (dose: 50.0 mg/kg/injection, schedule: Q04DX002 (ip), vehicle: Klucel (hydroxypropylcellulose) (HPC)) and 1 of 3 (dose: 100.0 mg/kg/injection, schedule: Q04DX002 (ip), vehicle: Klucel (hydroxypropylcellulose) (HPC)).
Consider `ClC12CCC(Cl)(CC1)CC2`, for which the survivor count (dose: 150.0 mg/kg/injection, schedule: Q01DX001 (ip), vehicle: acetone) is given as 3 of 6 and the survivor count (dose: 300.0 mg/kg/injection, schedule: Q01DX001 (ip), vehicle: acetone) is 0 of 6.
Regarding `C[n+]1ccc(C(=O)O)c2ccccc21`, the survivor count (dose: 300.0 mg/kg/injection, schedule: Q04DX003 (ip), vehicle: acetone) was 1 of 6.
For `Cc1nc2nc(C(F)(F)F)[nH]c2nc1C`, under “dose: 400.0 mg/kg/injection, schedule: Q01DX009 (ip), vehicle: saline with Tween-80”, the survivor count is reported as 0 of 6.
For `CC(=O)c1cccc(N2C(=O)CC(=P(c3ccccc3)(c3ccccc3)c3ccccc3)C2=O)c1`, the survivor count is, setting by setting: under setting [3], 3 of 6; under setting [4], 1 of 6.
Turning to `CNC1CCCc2ccccc2C1O` (stereo not given), the survivor count is, setting by setting: (dose: 200.0 mg/kg/injection, schedule: Q01DX001 (ip), vehicle: saline) 2 of 4; under setting [5], 0 of 4.
Regarding `CCOc1ccc(NC2CNC(=O)NC2=O)cc1` (stereo not given), the survivor count (dose: 100.0 mg/kg/injection, schedule: Q01DX Z (ip), vehicle: methylcellulose (MC)) is listed as 5 of 6.
As to `CCCCCCCCCCC1CCC2CCC3CCCC4CCC1C2C34` (stereo not given), the survivor count under setting [5] is recorded as 6 of 6.
As for `COc1cc(OC)c(NC(=O)CCl)cc1Cl`, the survivor count (dose: 400.0 mg/kg/injection, schedule: Q01DX009 (ip), vehicle: Klucel (hydroxypropylcellulose) (HPC)) is recorded as 3 of 6.
For `COc1cc(C=Nc2ccc(C(=O)O)cc2)ccc1N(CCCl)CCCl`, the T/C is 125 % of control (dose: 6.0 mg/kg/injection, schedule: Q01DX015 (ip), vehicle: carboxymethylcellulose (CMC)); 128 % of control (dose: 25.0 mg/kg/injection, schedule: Q01DX001 (ip), vehicle: carboxymethylcellulose (CMC)); 137 % of control [5 of 6 alive] under setting [1]. Moreover, the survivor count is 5 of 6 (dose: 24.0 mg/kg/injection, schedule: Q01DX015 (ip), vehicle: carboxymethylcellulose (CMC)); 2 of 6 (dose: 48.0 mg/kg/injection, schedule: Q01DX015 (ip), vehicle: carboxymethylcellulose (CMC)); 3 of 6 under setting [1]; 2 of 6 (dose: 100.0 mg/kg/injection, schedule: Q01DX001 (ip), vehicle: carboxymethylcellulose (CMC)); 0 of 6 under setting [2].
Consider `O=S(=O)(Nc1ccccn1)c1ccccc1`, for which, for the setting “dose: 100.0 mg/kg/injection, schedule: Q01DX009 (ip), vehicle: Klucel (hydroxypropylcellulose) (HPC)”, the survivor count is 6 of 6.
Take `COc1cc(N=C(N)N=C(N)N)c2ncccc2c1`: the survivor count is given as 0 of 6 (dose: 150.0 mg/kg/injection, schedule: Q01DX001 (ip), vehicle: carboxymethylcellulose (CMC)) and 0 of 6 (dose: 300.0 mg/kg/injection, schedule: Q01DX001 (ip), vehicle: carboxymethylcellulose (CMC)).
